The values below come from patent US4356188A, “1-Naphthyl-acetic acid derivatives and their therapeutic applications” (Institut de Recherche Scientifique "I.R.S.", priority 1978, dated 1982).

The data set in a line: in vivo. To be noted: rat, po. As to the method: Groups of 5 male CH. River rats, having an average weight of 125 g, kept on a water diet for 18 hours prior to the test, are orally administered the test materials, dissolved in neutral olive oil (1 ml/100 g), at dosages of 250-500-1000 and 2000 mg/kg.
The death rate is recorded 7 days after the administration: the lethal dose 50 (LD 50) is determined according to the method by Litchfield & Wilcoxon.

The compound `COc1ccc2cc([C@H](C)C(=O)O)ccc2c1` [naproxen] displayed a 50% lethal dose (LD50) at 168 h of 290 mg/kg.
